Test results: PubChem BioAssay AID330 (DTP/NCI, 2004)
The list shows only some results of the screen, not a fair sample: it is rich in T/C values a quarter to a half above the control, in often repeated tests (any T/C) and in doses without a T/C. Further doses and runs are listed elsewhere. T/C is the treated group as % of the vehicle group. Some entries give survivors of the animals treated and no T/C: the source files T/C as zero there, which appears to mark a toxic dose or a test without result, not a measured value. Some doses without a T/C left all or most animals alive at the check, yet need not have been tolerated: survival well below the control is almost never listed, so the zero probably covers shortened survival too. Survivors were counted at the toxicity check, usually on the fifth day, unless a day is given; later deaths do not show. Schedule codes are those of the source, taken here to give the interval after Q, in days (D) or hours (H), and the number of doses after X. Where survival is the endpoint, this PubChem deposit counts one and a half times the control or more as active, and values a quarter to a half above the control carry no call in these data; other NCI protocols may use other cut-offs. Some doses were run more than once; the values are given in rising order. Some T/C values carry the count of animals alive at the toxicity check (mostly the fifth day); without a count, all were alive then.

Test system: P388 leukemia ip, CD2F1 mice, survival T/C
Test: NCI In Vivo Anticancer Drug Screen. Data for tumor model P388 Leukemia (intraperitoneal) in CD2F1 (CDF1) mice
Settings: T/C endpoint: median survival time, higher T/C = longer survival
[1] = dose: 50.0 mg/kg/injection, schedule: Q01DX005 (ip), vehicle: saline with Tween-80
[2] = dose: 100.0 mg/kg/injection, schedule: Q01DX005 (ip), vehicle: saline with Tween-80
[3] = dose: 200.0 mg/kg/injection, schedule: Q01DX005 (ip), vehicle: saline with Tween-80
[4] = dose: 60.0 mg/kg/injection, schedule: Q01DX005 (ip), vehicle: saline with Tween-80
[5] = dose: 120.0 mg/kg/injection, schedule: Q01DX005 (ip), vehicle: saline with Tween-80
[6] = dose: 240.0 mg/kg/injection, schedule: Q01DX005 (ip), vehicle: saline with Tween-80
[7] = dose: 200.0 mg/kg/injection, schedule: Q01DX009 (ip), vehicle: saline with Tween-80
[8] = dose: 100.0 mg/kg/injection, schedule: Q01DX001 (ip), vehicle: Klucel (hydroxypropylcellulose) (HPC)

How did the survivor count (dose: 50.0 mg/kg/injection, schedule: Q01DX009 (ip), vehicle: Klucel (hydroxypropylcellulose) (HPC)) turn out when `COC(=O)C1=[N+]([O-])[N+]([O-])=C(C(=O)OC)C1=O` was run?
The survivor count was 2 of 6.

With `Clc1ccc(-n2nnc3cc(Cl)ccc32)c(Cl)c1` as the compound, how does the survivor count (dose: 12.5 mg/kg/injection, schedule: Q01DX005 (ip), vehicle: saline with Tween-80) read?
The survivor count was 6 of 6.

What about the survivor count [1] of the same compound?
The survivor count was 6 of 6.

And the survivor count [2]?
The survivor count was 6 of 6.

What about the survivor count [3] of the same compound?
Its survivor count is 6 of 6.

How did the survivor count [4] turn out when `O=C(O)c1cc2c(ccc3ccccc32)[nH]1` was run?
Its survivor count is 0 of 6.

What about the survivor count [5] of the same compound?
Its survivor count is 0 of 6.

What about the survivor count [6] of the same compound?
The survivor count was 0 of 6.

What does the source list for `CS(=O)(=O)OCCN(CCOS(C)(=O)=O)c1ccc(N=Nc2ccccc2C(=O)O)cc1`?
T/C (dose: 0.39 mg/kg/injection, schedule: Q01DX009 (ip), vehicle: Klucel (hydroxypropylcellulose) (HPC)): 126 % of control; survivor count (dose: 12.5 mg/kg/injection, schedule: Q01DX009 (ip), vehicle: Klucel (hydroxypropylcellulose) (HPC)): 6 of 6; survivor count (dose: 25.0 mg/kg/injection, schedule: Q01DX009 (ip), vehicle: Klucel (hydroxypropylcellulose) (HPC)): 6 of 6

With `NC(=O)c1cc(Cl)nc2nc(Cl)nc(N)c12` as the compound, how does the T/C (dose: 200.0 mg/kg/injection, schedule: Q04DX003 (ip), vehicle: saline with Tween-80) read?
Its T/C is 125 % of control.

With `CN(C)c1ccc(N=Nc2ccc([As](=O)(O)O)cc2)cc1` as the compound, how does the survivor count (dose: 2.0 mg/kg/injection, schedule: Q01DX009 (ip), vehicle: saline with Tween-80) read?
Its survivor count is 1 of 6.

And the survivor count (dose: 3.0 mg/kg/injection, schedule: Q01DX009 (ip), vehicle: saline with Tween-80)?
Its survivor count is 5 of 6.

And the survivor count (dose: 6.0 mg/kg/injection, schedule: Q01DX009 (ip), vehicle: saline with Tween-80)?
Its survivor count is 5 of 6.

And the survivor count (dose: 12.0 mg/kg/injection, schedule: Q01DX009 (ip), vehicle: saline with Tween-80)?
The survivor count was 0 of 6.

With `CCOC(=O)C(=O)Cc1nc2ccccc2nc1C` as the compound, how does the survivor count [6] read?
Its survivor count is 6 of 6.

For `CN1CCc2c1c1c(c3c4ccccc4n(C)c23)N(C)CC1`, which survivor count (dose: 50.0 mg/kg/injection, schedule: Q01DX005 (ip), vehicle: Klucel (hydroxypropylcellulose) (HPC)) is on record?
The survivor count was 6 of 6.

What about the survivor count (dose: 100.0 mg/kg/injection, schedule: Q01DX005 (ip), vehicle: Klucel (hydroxypropylcellulose) (HPC)) of the same compound?
The survivor count was 6 of 6.

What about the survivor count (dose: 200.0 mg/kg/injection, schedule: Q01DX005 (ip), vehicle: Klucel (hydroxypropylcellulose) (HPC)) of the same compound?
The survivor count was 6 of 6.

Which T/C [7] does the source give for `O=C(O)C1Cc2nc[nH]c2CN1CO` (stereo not drawn) here?
Its T/C is 127 and 135 % of control.

What about the T/C (dose: 400.0 mg/kg/injection, schedule: Q01DX009 (ip), vehicle: saline with Tween-80) of the same compound?
Its T/C is 132 % of control.

With `Clc1ccc(S/N=C/c2ccccc2)cc1` as the compound, how does the survivor count [7] read?
The survivor count was 4 of 6.

Which survivor count [1] does the source give for `C(=N\Nc1nnc(-c2ccccc2)c(-c2ccccc2)n1)/c1cccnc1` here?
The survivor count was 6 of 6.

And the survivor count [2]?
Its survivor count is 6 of 6.

With `Fc1ccccc1CSc1ncnc2nc[nH]c12` as the compound, how does the survivor count (dose: 300.0 mg/kg/injection, schedule: Q04DX003 (ip), vehicle: saline with Tween-80) read?
The survivor count was 2 of 6.

And the survivor count (dose: 400.0 mg/kg/injection, schedule: Q04DX003 (ip), vehicle: saline with Tween-80)?
Its survivor count is 1 of 6.

For `C[Si](C)(C)ONC(=O)c1ccccc1`, which T/C (dose: 400.0 mg/kg/injection, schedule: Q01DX009 (ip), vehicle: distilled water + Tween-80) is on record?
Its T/C is 132 % of control [4 of 5 alive].

How did the survivor count [6] turn out when `Nc1cccc(C(=O)c2ccc(N)c(N)c2)c1` was run?
The survivor count was 6 of 6.

For `CCOC(=O)/C=C/c1nc(C(=O)OCC)c(C)c(=O)[nH]1`, which survivor count (dose: 25.0 mg/kg/injection, schedule: Q01DX009 (ip), vehicle: distilled water + Tween-80) is on record?
The survivor count was 6 of 6.

And the survivor count (dose: 50.0 mg/kg/injection, schedule: Q01DX009 (ip), vehicle: distilled water + Tween-80)?
Its survivor count is 6 of 6.

What about the survivor count (dose: 100.0 mg/kg/injection, schedule: Q01DX009 (ip), vehicle: distilled water + Tween-80) of the same compound?
Its survivor count is 6 of 6.

For `CC1=C(C)C(=O)c2cc3c(-c4ccccc4)oc(-c4ccccc4)c3cc2C1=O`, which survivor count [2] is on record?
The survivor count was 6 of 6.

What about the survivor count [3] of the same compound?
The survivor count was 6 of 6.

With `Cc1cccn2cnnc12` as the compound, how does the survivor count (dose: 400.0 mg/kg/injection, schedule: Q01DX009 (ip), vehicle: saline) read?
The survivor count was 0 of 6.

`COC(=O)c1[se]c(=[Se])[se]c1C(=O)OC` was tested. Which survivor count [8] did it give?
The survivor count was 4 of 6.

And the survivor count (dose: 400.0 mg/kg/injection, schedule: Q01DX001 (ip), vehicle: Klucel (hydroxypropylcellulose) (HPC))?
The survivor count was 1 of 6.

For `Nc1ncnc(N)c1NC(=O)c1ccccc1`, which survivor count (dose: 240.0 mg/kg/injection, schedule: Q01DX005 (ip), vehicle: suspension in saline) is on record?
Its survivor count is 0 of 6.

What does the source list for `COc1ccc2c3c([nH]c2c1[N+](=O)[O-])C(C)N(C)CC3` (stereo not drawn)?
survivor count (dose: 34.0 mg/kg/injection, schedule: Q01DX005 (ip), vehicle: Klucel (hydroxypropylcellulose) (HPC)): 2 of 6; survivor count (dose: 68.0 mg/kg/injection, schedule: Q01DX005 (ip), vehicle: Klucel (hydroxypropylcellulose) (HPC)): 0 of 6; survivor count (dose: 136.0 mg/kg/injection, schedule: Q01DX005 (ip), vehicle: Klucel (hydroxypropylcellulose) (HPC)): 0 of 6

Which results are given for `NC(Cc1ccc[se]1)C(=O)O` (stereo not drawn)?
survivor count [2]: 0 of 6; survivor count [3]: 0 of 6

With `CCOC(=O)C(Cc1c[nH]c2ccccc12)NCc1ccc(N(CCCl)CCCl)cc1` (stereo not drawn) as the compound, how does the T/C [7] read?
Its T/C is 126 % of control.

How did the survivor count [5] turn out when `CC(C)(Sc1cc(Cl)c(Cl)c(Cl)c1)C(=O)OCCN1CCOCC1` was run?
Its survivor count is 6 of 6.

What does the source list for `CCCCCCCCCCCC1N=C(N)N=C(N)N1c1cccc(Br)c1` (stereo not drawn)?
survivor count [1]: 0 of 5; survivor count [2]: 3 of 5; survivor count [3]: 0 of 5

How did the survivor count (dose: 128.0 mg/kg/injection, schedule: Q01DX009 (ip), vehicle: Klucel (hydroxypropylcellulose) (HPC)) turn out when `CC(C)NCC(O)COc1cccc2ccccc12` (stereo not drawn) was run?
The survivor count was 0 of 6.

Which results are given for `O=C([O-])CC(=O)[O-].[Cu+2].c1ccc(-c2ccccn2)nc1`?
survivor count [1]: 0 of 6; survivor count [2]: 0 of 6; survivor count [3]: 0 of 6

How did the survivor count (dose: 40.0 mg/kg/injection, schedule: Q04DX003 (ip), vehicle: other) turn out when `Cc1ccc2c(C)c3c(ccc4ccccc43)c[n+]2c1` was run?
The survivor count was 0 of 6.

For `CC(C)(C)N=O`, which survivor count (dose: 400.0 mg/kg/injection, schedule: Q01DX001 (ip), vehicle: saline with Tween-80) is on record?
Its survivor count is 0 of 6.

Which T/C (dose: 6.25 mg/kg/injection, schedule: Q01DX009 (ip), vehicle: saline with Tween-80) does the source give for `Cc1cc(Nc2ccc(N(CCCl)CCCl)cc2)cc(C)c1O` here?
Its T/C is 145 % of control.

What about the survivor count (dose: 50.0 mg/kg/injection, schedule: Q01DX009 (ip), vehicle: saline with Tween-80) of the same compound?
The survivor count was 6 of 6.

What about the survivor count (dose: 100.0 mg/kg/injection, schedule: Q01DX009 (ip), vehicle: saline with Tween-80) of the same compound?
The survivor count was 2 of 6.

And the survivor count [7]?
Its survivor count is 0 of 6.

With `O=C(NC(Cc1ccc(I)cc1)C(=O)O)c1ccc(Br)cc1` (stereo not drawn) as the compound, how does the survivor count (dose: 200.0 mg/kg/injection, schedule: Q01DX005 (ip), vehicle: sodium bicarbonate) read?
Its survivor count is 0 of 6.

And the survivor count (dose: 400.0 mg/kg/injection, schedule: Q01DX005 (ip), vehicle: sodium bicarbonate)?
Its survivor count is 0 of 6.

And the survivor count (dose: 800.0 mg/kg/injection, schedule: Q01DX005 (ip), vehicle: sodium bicarbonate)?
Its survivor count is 1 of 6.

With `O=[N+]([O-])C(Br)(CO)CCC(Br)(CO)[N+](=O)[O-]` (stereo not drawn) as the compound, how does the survivor count (dose: 50.0 mg/kg/injection, schedule: Q01DX001 (ip), vehicle: Klucel (hydroxypropylcellulose) (HPC)) read?
Its survivor count is 0 of 6.

And the survivor count [8]?
The survivor count was 0 of 6.

And the survivor count (dose: 200.0 mg/kg/injection, schedule: Q01DX001 (ip), vehicle: Klucel (hydroxypropylcellulose) (HPC))?
The survivor count was 0 of 6.

`O=C(COc1ccc(Cl)cc1)NN1CCCCCC1` was tested. Which survivor count (dose: 30.0 mg/kg/injection, schedule: Q01DX005 (ip), vehicle: Klucel (hydroxypropylcellulose) (HPC)) did it give?
The survivor count was 3 of 6.

And the survivor count (dose: 60.0 mg/kg/injection, schedule: Q01DX005 (ip), vehicle: Klucel (hydroxypropylcellulose) (HPC))?
The survivor count was 0 of 6.

What about the survivor count (dose: 120.0 mg/kg/injection, schedule: Q01DX005 (ip), vehicle: Klucel (hydroxypropylcellulose) (HPC)) of the same compound?
The survivor count was 0 of 6.

And the survivor count (dose: 240.0 mg/kg/injection, schedule: Q01DX005 (ip), vehicle: Klucel (hydroxypropylcellulose) (HPC))?
Its survivor count is 0 of 6.

What does the source list for `CC1=C(N(C)C)C(=O)N(c2ccccc2)CN1C`?
survivor count (dose: 30.0 mg/kg/injection, schedule: Q01DX005 (ip), vehicle: saline with Tween-80): 2 of 6; survivor count [4]: 0 of 6; survivor count [5]: 0 of 6; survivor count [6]: 0 of 6

Which survivor count (dose: 100.0 mg/kg/injection, schedule: Q01DX009 (ip), vehicle: saline + alcohol) does the source give for `Cc1ccc(NC(=O)Oc2cc(C)c(Br)c(C)c2)cc1[N+](=O)[O-]` here?
The survivor count was 6 of 6.
